Source: the odorant receptor screen of Mainland et al. (2015)
Several values for one entry are separate records, joined by “and”; a condition that tells them apart may be missing. Identical values can stand only once. The list shows a part of the results. Single wells; the ratio to wells without odorant was worked out here, and repeats agree poorly.

Experiments:
Test in all cases: odorant receptor activation (CRE luciferase / Renilla) (fold of no-odor wells); higher = more activation
Conditions in all cases: 100 µM
OR1J2 clone 1443 = test system: OR1J2 clone 1443
OR1J4 clone 1429 = test system: OR1J4 clone 1429
OR1K1 clone 1315 = test system: OR1K1 clone 1315
OR1L1 clone 1379 = test system: OR1L1 clone 1379
OR1L3 clone 1090 = test system: OR1L3 clone 1090
OR1L4 G234R clone 1102 = test system: OR1L4 G234R clone 1102
[1] = test system: OR1L6 Q23K/C150Y/I215T/R221Q/M223I/G234R clone 1539
OR1L8 clone 1088 = test system: OR1L8 clone 1088
OR1M1 clone 1198 = test system: OR1M1 clone 1198
OR1N1 clone 1463 = test system: OR1N1 clone 1463
[2] = test system: OR1N2 W23R/V230G/T287M clone 1105
[3] = test system: OR1N2 W37R/V244G/T301M clone 1350
OR1N2 clone 1505 = test system: OR1N2 clone 1505
[4] = test system: OR1Q1 Q24R/I163M clone 1103
OR1S1 clone 1455 = test system: OR1S1 clone 1455
OR1S2 I46T clone 1137 = test system: OR1S2 I46T clone 1137
OR2A1 clone 1078 = test system: OR2A1 clone 1078
OR2A12 clone 1085 = test system: OR2A12 clone 1085
OR2A14 Indel clone 1540 = test system: OR2A14 Indel clone 1540
OR2A14 clone 1083 = test system: OR2A14 clone 1083

Structure (SMILES)	odorant receptor activation (OR1J2 clone 1443)	odorant receptor activation (OR1J4 clone 1429)	odorant receptor activation (OR1K1 clone 1315)	odorant receptor activation (OR1L1 clone 1379)	odorant receptor activation (OR1L3 clone 1090)	odorant receptor activation (OR1L4 G234R clone 1102)	odorant receptor activation [1]	odorant receptor activation (OR1L8 clone 1088)	odorant receptor activation (OR1M1 clone 1198)	odorant receptor activation (OR1N1 clone 1463)	odorant receptor activation [2]	odorant receptor activation [3]	odorant receptor activation (OR1N2 clone 1505)	odorant receptor activation [4]	odorant receptor activation (OR1S1 clone 1455)	odorant receptor activation (OR1S2 I46T clone 1137)	odorant receptor activation (OR2A1 clone 1078)	odorant receptor activation (OR2A12 clone 1085)	odorant receptor activation (OR2A14 Indel clone 1540)	odorant receptor activation (OR2A14 clone 1083)
CC1CCC(C(C)C)C(O)C1 (single isomer, unassigned; (-)) [(-)-menthol]	1.14	1.35	0.696	1.14	30.4	22.5	2.88	1.71	1.42	3.44	4.42	1.01	4.25	18.4	1.11	1.12	4.36	2.24	4.25	2.49
CC/C=C\CCO [cis-3-hexen-1-ol]	0.295	0.289	0.77	0.266	0.901	1.03	0.987	1.19	1	0.888	1.01	1.15	1.03	0.974	1.19	0.955	0.896	1.03	0.906	1.19
CCCCO [1-butanol]	1.05	1.49	0.903	0.822	23.3	29.2	1.32	1.65	1.05	0.87	4.67	1.5	1.17	14.5	0.782	1.21	5.32	2.67	1.26	3.1
CC1COCc2cc3c(cc21)C(C)(C)C(C)C3(C)C (centres undefined) [galaxolide]	1.53	2.75		2.89	4.11	3.75	1.83 and 3.94	1.73	0.915		4.61	5.16 and 3.32	6.34 and 3.54	4.38	1.42 and 1.27	4.84	1.99	2.78		1.16
O=C1CCCCCCCCCCCCCCO1 [pentadecalactone]	1.38	1.16	1.17	1.42	1.18	0.912	0.805	1.04	0.918	1.13	0.936	0.542	0.997	1.26	1.05	1.08	1.07	0.75	0.82	0.982
CC(=O)OC1CC2CCC1(C)C2(C)C (centres undefined) [isobornyl acetate]	0.717	0.859	0.81 and 0.861	0.802	1.09	0.948	1.09 and 1.08	1.24	1.36	1.01 and 1.22	1.9	1.13 and 0.804	0.779 and 1.11	0.886	0.572	1.09	0.778	1.69	1.2 and 0.93	3.36
C=C(C)C1CC=C(C)C(=O)C1 (centres undefined) [r-carvone]	1.4	1.21	1.2	1.6	1.28	0.775	0.915	0.899	1.07	0.795	0.922	0.521	0.995	1.2	0.854	1.17	0.987	0.878	0.795	1.06
CC(C)(C)c1ccc(CCC=O)cc1 [bourgeonal]	0.169	0.169	0.591	0.187	0.847	0.792	1.11	1.32	0.746	1.11	0.926	0.896	0.927	0.888		0.759	0.835	1.05	0.972	1.18
O=C1CCCCC1 [Cyclohexanone]	1.06	0.873	0.674	0.878	2.15	2.24		0.839	0.75	0.612 and 1.07	3.32	1.04 and 0.943	0.74 and 0.783	0.87		0.509	1.09	2.28		1.44
CCCCCCCCC=O [nonyl aldehyde]	1.02	0.858	0.302	0.961	0.894	0.88	0.858	1.02	1.23	1.23	1.22	0.983	1.24	0.99	1.41	1.39	1.18	1.09	1.01	1.03
CC(=O)OC(C)(C)C1CC=C(C)CC1 (centres undefined) [terpinyl acetate]	1.12	1.02	1.13	1.02	2.17	1.36	1.18	1.39	1.47	1.21	1.59	0.538	1.15	1.72	0.953	1.75	1.29	1.29	0.979	1.84
C=CCc1ccc(O)c(OC)c1 [eugenol]	1.34 and 1.14	1.4 and 1.39	2.19 and 1.42	1.28 and 1.38	2.23 and 1.27	1.97 and 1.58	0.793	1.72 and 1.43	1.98 and 1.86	2.62 and 1.09 and 1.18	2.27 and 1.27	2.38 and 0.968 and 1.4	2.53 and 0.943 and 1.03		1.1	2.65 and 1.62	1.39 and 1.27	2.67 and 1.26	1.46	1.59 and 1.51
c1ccc(Oc2ccccc2)cc1 [diphenyl ether]	1.04	1.01	1.01	1.14	1.01	1.17	0.872	1.05	1.34	1.24	0.886	1.02	1.19	1.21	0.794	1.04	0.566	0.881	1.11	1
COC(=O)c1ccccc1 [methyl benzoate]	0.89	0.832	0.928	0.878	0.931	1.59		1.21	0.775	0.767 and 1.12	3.37	1.14 and 0.783	0.667 and 0.948	1.02		1.06	1.98	2.06		0.705
